± gives the standard deviation of the averaged measurements. This is a selection; strong and weak results do not stand in their true shares.
Compound: Nc1ncnc2c1ncn2[C@@H]1O[C@H](COP(=O)(O)OP(=O)(O)NP(=O)(O)O)[C@@H](O)[C@H]1O [adenylyl imidodiphosphate]
Assay: NP40-soluble protein abundance relative to vehicle (solubility fold change) (ratio); higher = more soluble protein in presence of AMP-PNP
How it was run: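 Crude Jurkat lysate, prepared by Dounce homogenisation, was exposed to eight concentrations from 0.1 to 10 mM for 10 min at room temperature and then 3 min at 37 °C. Solubilisation used 0.8% NP40 with benzonase for 60 min at 4 °C, followed by ultracentrifugation and TMT labelling of the supernatant for LC-MS/MS. After vsn normalisation of intensities, each value is the fold change against the detergent-processed vehicle within each replicate, across three independent experiments.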

By UniProt entry, the sequences of proteins in these tests, tags left out. Where a name states a change or a piece, a line headed by the entry shows the natural chain unless it says otherwise.
UniProt O15084: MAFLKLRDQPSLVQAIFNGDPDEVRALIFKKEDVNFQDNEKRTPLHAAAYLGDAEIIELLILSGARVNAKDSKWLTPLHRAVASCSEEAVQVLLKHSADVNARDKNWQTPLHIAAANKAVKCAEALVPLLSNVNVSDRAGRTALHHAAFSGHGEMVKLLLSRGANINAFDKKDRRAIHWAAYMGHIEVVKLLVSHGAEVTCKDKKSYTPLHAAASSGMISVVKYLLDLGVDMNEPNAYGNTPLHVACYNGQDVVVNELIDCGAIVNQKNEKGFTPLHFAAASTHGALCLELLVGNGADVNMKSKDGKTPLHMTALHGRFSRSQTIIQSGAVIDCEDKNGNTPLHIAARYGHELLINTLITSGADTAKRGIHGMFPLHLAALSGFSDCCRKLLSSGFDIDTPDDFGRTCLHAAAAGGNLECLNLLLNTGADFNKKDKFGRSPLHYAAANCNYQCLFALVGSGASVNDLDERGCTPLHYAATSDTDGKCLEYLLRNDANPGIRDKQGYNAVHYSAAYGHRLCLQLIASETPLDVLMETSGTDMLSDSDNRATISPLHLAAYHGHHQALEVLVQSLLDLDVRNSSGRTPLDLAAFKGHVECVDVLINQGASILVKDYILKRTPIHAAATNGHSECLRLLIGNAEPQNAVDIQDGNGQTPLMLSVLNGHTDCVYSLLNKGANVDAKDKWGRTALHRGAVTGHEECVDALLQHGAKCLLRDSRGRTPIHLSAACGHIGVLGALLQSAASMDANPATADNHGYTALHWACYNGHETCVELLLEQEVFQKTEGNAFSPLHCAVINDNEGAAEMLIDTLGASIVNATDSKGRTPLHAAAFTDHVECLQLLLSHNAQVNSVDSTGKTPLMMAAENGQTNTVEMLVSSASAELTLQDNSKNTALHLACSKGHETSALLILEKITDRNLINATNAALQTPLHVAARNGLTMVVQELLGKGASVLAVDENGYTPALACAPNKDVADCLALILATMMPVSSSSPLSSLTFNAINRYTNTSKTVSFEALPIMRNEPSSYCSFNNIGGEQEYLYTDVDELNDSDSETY
UniProt Q96C34: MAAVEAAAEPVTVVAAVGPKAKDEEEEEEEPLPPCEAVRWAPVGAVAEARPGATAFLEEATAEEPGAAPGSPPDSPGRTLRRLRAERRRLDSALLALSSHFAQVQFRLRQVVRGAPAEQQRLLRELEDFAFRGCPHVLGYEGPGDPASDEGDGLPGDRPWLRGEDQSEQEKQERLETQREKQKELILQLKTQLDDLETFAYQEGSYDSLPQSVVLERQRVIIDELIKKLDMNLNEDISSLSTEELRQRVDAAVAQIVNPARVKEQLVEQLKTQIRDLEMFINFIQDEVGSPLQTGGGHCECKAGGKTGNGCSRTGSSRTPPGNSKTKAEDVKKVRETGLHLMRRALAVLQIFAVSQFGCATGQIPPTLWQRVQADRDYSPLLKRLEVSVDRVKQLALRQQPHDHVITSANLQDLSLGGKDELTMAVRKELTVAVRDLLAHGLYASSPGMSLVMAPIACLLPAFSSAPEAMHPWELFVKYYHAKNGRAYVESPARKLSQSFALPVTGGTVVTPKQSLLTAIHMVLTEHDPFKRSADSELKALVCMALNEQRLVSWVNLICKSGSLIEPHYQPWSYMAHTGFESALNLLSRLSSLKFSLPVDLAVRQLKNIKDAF
UniProt O00116: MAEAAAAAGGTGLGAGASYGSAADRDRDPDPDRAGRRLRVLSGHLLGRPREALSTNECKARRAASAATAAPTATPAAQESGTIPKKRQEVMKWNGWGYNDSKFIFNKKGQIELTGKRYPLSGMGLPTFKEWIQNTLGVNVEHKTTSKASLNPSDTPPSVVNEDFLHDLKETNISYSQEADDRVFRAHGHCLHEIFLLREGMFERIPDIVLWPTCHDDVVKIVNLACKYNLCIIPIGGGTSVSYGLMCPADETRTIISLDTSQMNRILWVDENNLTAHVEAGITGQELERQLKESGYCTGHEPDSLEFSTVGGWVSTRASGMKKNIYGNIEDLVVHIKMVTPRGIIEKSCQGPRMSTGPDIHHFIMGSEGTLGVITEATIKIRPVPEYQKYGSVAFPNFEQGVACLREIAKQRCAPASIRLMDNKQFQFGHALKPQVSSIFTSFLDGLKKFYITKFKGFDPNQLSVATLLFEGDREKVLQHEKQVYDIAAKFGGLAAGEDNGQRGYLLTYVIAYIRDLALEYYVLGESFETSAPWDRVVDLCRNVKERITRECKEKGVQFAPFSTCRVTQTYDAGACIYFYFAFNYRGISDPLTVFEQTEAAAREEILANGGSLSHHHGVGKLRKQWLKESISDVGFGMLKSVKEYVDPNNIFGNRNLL
UniProt O15498: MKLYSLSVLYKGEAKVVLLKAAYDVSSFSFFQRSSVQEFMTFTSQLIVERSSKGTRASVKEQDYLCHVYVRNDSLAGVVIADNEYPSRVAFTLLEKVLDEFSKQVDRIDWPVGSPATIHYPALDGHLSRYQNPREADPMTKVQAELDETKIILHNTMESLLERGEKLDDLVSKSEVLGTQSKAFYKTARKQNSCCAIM
UniProt Q08117: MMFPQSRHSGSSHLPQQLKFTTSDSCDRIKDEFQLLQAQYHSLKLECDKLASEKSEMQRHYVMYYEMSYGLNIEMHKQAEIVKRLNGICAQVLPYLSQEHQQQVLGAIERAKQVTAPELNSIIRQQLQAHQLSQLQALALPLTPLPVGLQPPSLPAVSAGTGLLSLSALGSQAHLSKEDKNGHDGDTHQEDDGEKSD
UniProt O43709: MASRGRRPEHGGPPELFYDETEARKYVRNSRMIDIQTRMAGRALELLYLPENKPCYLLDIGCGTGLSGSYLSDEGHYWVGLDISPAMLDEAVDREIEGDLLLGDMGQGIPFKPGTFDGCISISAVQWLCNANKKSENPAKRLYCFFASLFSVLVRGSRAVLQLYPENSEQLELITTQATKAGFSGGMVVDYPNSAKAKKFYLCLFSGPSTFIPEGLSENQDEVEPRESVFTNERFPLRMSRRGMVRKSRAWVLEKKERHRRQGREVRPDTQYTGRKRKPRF
UniProt O43252: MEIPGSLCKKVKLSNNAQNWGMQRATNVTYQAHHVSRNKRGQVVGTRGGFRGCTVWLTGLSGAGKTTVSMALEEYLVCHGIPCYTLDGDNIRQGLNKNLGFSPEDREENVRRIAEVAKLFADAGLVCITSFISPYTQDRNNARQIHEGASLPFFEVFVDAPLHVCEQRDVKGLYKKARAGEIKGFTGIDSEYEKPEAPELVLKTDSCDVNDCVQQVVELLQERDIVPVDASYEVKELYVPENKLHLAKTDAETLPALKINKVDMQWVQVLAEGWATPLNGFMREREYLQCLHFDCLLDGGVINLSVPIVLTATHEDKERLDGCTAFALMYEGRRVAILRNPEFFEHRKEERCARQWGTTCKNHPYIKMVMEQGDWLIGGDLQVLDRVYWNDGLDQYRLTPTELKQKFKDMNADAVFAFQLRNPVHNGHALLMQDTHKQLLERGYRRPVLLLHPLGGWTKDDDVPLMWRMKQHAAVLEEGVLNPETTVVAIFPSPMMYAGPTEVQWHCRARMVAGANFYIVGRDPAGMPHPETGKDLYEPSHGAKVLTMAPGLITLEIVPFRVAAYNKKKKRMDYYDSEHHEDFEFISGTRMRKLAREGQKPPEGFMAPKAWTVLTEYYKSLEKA
UniProt Q96ND0: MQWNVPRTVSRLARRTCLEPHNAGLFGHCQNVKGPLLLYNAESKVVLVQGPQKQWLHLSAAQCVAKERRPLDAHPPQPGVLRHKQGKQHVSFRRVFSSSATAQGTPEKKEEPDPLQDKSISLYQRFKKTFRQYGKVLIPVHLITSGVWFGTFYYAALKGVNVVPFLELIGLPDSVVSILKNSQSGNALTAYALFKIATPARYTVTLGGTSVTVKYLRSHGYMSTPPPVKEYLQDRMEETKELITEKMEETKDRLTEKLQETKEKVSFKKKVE
UniProt O00754: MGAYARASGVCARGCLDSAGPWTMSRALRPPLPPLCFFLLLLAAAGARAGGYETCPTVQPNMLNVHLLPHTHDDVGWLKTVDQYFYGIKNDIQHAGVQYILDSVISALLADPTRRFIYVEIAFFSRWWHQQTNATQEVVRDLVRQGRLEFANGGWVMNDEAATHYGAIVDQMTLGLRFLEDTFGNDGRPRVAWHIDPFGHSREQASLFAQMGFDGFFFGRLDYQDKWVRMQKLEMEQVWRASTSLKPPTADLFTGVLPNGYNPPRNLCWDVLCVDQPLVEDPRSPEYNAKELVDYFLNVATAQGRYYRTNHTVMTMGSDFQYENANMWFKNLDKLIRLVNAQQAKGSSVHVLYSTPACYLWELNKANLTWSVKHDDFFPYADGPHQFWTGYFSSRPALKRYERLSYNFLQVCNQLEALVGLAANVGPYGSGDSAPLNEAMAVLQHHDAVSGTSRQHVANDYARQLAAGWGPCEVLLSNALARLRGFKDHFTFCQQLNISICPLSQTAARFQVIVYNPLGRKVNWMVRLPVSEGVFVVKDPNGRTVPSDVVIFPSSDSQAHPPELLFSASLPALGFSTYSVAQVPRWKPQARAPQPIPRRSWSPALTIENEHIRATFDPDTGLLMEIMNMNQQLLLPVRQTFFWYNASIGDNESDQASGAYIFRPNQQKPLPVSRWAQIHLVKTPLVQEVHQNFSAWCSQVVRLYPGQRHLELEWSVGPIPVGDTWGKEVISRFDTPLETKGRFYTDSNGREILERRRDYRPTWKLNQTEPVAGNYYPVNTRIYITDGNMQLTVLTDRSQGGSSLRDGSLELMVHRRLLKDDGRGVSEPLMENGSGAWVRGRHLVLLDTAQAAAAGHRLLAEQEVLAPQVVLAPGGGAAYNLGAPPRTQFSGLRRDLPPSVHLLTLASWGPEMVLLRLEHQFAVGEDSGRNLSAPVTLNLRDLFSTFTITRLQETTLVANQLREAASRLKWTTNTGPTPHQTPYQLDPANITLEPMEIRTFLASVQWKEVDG
UniProt O43324: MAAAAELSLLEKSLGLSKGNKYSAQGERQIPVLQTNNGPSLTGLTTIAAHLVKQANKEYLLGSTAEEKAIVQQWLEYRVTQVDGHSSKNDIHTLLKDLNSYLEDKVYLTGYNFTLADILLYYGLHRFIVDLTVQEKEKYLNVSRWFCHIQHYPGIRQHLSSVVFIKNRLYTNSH
UniProt O00628: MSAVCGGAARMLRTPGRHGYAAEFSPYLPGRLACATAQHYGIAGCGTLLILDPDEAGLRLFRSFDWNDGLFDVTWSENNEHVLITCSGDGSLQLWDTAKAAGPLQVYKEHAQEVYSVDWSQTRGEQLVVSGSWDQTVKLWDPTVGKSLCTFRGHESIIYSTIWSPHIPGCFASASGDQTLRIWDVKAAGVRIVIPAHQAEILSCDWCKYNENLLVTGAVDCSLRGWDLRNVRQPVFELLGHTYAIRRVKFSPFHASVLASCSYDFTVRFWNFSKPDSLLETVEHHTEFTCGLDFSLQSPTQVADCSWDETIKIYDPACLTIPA
UniProt O15397, whole entry: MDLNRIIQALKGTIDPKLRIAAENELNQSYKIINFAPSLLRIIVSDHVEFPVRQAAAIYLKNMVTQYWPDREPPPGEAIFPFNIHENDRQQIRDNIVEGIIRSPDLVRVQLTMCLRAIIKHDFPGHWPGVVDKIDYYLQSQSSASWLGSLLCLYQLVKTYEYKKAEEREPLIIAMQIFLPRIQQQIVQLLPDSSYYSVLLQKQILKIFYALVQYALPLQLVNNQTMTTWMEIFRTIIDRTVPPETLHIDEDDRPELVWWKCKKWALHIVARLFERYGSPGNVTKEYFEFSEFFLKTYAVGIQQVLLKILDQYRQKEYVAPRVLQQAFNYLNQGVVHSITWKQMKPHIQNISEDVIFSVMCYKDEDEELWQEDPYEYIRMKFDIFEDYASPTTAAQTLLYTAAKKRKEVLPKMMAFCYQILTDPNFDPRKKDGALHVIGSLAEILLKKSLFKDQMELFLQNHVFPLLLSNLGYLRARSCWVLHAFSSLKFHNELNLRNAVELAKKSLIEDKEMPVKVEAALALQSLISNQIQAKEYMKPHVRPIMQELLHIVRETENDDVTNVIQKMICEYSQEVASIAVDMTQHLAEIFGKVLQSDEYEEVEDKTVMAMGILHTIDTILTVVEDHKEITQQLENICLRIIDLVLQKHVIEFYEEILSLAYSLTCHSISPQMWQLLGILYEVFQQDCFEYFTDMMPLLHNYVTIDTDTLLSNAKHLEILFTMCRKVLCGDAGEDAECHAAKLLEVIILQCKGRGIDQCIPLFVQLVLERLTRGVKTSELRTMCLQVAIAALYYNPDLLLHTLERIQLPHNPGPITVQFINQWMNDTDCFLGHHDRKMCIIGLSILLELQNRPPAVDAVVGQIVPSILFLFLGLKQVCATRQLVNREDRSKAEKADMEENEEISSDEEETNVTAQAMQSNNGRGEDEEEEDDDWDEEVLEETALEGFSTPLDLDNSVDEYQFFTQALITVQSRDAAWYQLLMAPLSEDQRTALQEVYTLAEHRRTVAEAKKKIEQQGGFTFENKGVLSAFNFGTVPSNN

## ANKRD28 (UniProt O15084)
concentration: 1mM
  NP40-soluble protein abundance: 0.991 ± 0.028
concentration: 2mM
  NP40-soluble protein abundance: 0.932 ± 0.11
concentration: 4mM
  NP40-soluble protein abundance: 0.997 ± 0.031
concentration: 6mM
  NP40-soluble protein abundance: 0.937 ± 0.043
concentration: 8mM
  NP40-soluble protein abundance: 0.939 ± 0.032
concentration: 10mM
  NP40-soluble protein abundance: 0.908 ± 0.044

## ARPC2 (UniProt O15144)
concentration: 1mM
  NP40-soluble protein abundance: 0.974 ± 0.033
concentration: 2mM
  NP40-soluble protein abundance: 0.896 ± 0.11
concentration: 4mM
  NP40-soluble protein abundance: 0.937 ± 0.023
concentration: 6mM
  NP40-soluble protein abundance: 0.976 ± 0.031
concentration: 8mM
  NP40-soluble protein abundance: 0.994 ± 0.046
concentration: 10mM
  NP40-soluble protein abundance: 0.957 ± 0.048

## K7EQS2 and related entries (UniProt Q96C34)
concentration: 1mM
  NP40-soluble protein abundance: 0.963 ± 0.022
concentration: 2mM
  NP40-soluble protein abundance: 0.95 ± 0.012
concentration: 4mM
  NP40-soluble protein abundance: 0.94 ± 0.0013
concentration: 6mM
  NP40-soluble protein abundance: 0.96011 ± 0.00081
concentration: 8mM
  NP40-soluble protein abundance: 0.939 ± 0.024
concentration: 10mM
  NP40-soluble protein abundance: 0.962 ± 0.021

## AGPS (UniProt O00116)
concentration: 1mM
  NP40-soluble protein abundance: 1.01 ± 0.014
concentration: 2mM
  NP40-soluble protein abundance: 0.978 ± 0.038
concentration: 4mM
  NP40-soluble protein abundance: 0.991 ± 0.031
concentration: 6mM
  NP40-soluble protein abundance: 0.989 ± 0.029
concentration: 8mM
  NP40-soluble protein abundance: 1.006 ± 0.0084
concentration: 10mM
  NP40-soluble protein abundance: 0.979 ± 0.022

## YKT6 (UniProt O15498)
concentration: 1mM
  NP40-soluble protein abundance: 0.9793 ± 0.007
concentration: 2mM
  NP40-soluble protein abundance: 0.968 ± 0.03
concentration: 4mM
  NP40-soluble protein abundance: 0.905 ± 0.045
concentration: 6mM
  NP40-soluble protein abundance: 0.933 ± 0.02
concentration: 8mM
  NP40-soluble protein abundance: 0.912 ± 0.03
concentration: 10mM
  NP40-soluble protein abundance: 0.908 ± 0.06

## K7ELE3 and related entries (UniProt Q08117)
concentration: 1mM
  NP40-soluble protein abundance: 0.974 ± 0.074
concentration: 2mM
  NP40-soluble protein abundance: 0.996 ± 0.033
concentration: 4mM
  NP40-soluble protein abundance: 0.989 ± 0.081
concentration: 6mM
  NP40-soluble protein abundance: 0.973 ± 0.046
concentration: 8mM
  NP40-soluble protein abundance: 0.946 ± 0.053
concentration: 10mM
  NP40-soluble protein abundance: 0.961 ± 0.053

## UniProt O43709 and related entries
concentration: 1mM
  NP40-soluble protein abundance: 1.06 ± 0.024
concentration: 2mM
  NP40-soluble protein abundance: 1.12 ± 0.026
concentration: 4mM
  NP40-soluble protein abundance: 1.11 ± 0.038
concentration: 6mM
  NP40-soluble protein abundance: 1.09 ± 0.026
concentration: 8mM
  NP40-soluble protein abundance: 1.12 ± 0.018
concentration: 10mM
  NP40-soluble protein abundance: 1.18 ± 0.023

## PAPSS1 (UniProt O43252)
concentration: 1mM
  NP40-soluble protein abundance: 1.01 ± 0.029
concentration: 2mM
  NP40-soluble protein abundance: 0.94 ± 0.071
concentration: 4mM
  NP40-soluble protein abundance: 0.975 ± 0.019
concentration: 6mM
  NP40-soluble protein abundance: 0.947 ± 0.021
concentration: 8mM
  NP40-soluble protein abundance: 0.9491 ± 0.0087
concentration: 10mM
  NP40-soluble protein abundance: 0.917 ± 0.033

## K7EK00 and related entries (UniProt Q96ND0)
concentration: 1mM
  NP40-soluble protein abundance: 0.992 ± 0.02
concentration: 2mM
  NP40-soluble protein abundance: 1.03 ± 0.02
concentration: 4mM
  NP40-soluble protein abundance: 0.985 ± 0.04
concentration: 6mM
  NP40-soluble protein abundance: 1.03 ± 0.014
concentration: 8mM
  NP40-soluble protein abundance: 0.993 ± 0.014
concentration: 10mM
  NP40-soluble protein abundance: 1.028 ± 0.0082

## UniProt O00754 and related entries
concentration: 1mM
  NP40-soluble protein abundance: 0.951 ± 0.047
concentration: 2mM
  NP40-soluble protein abundance: 0.945 ± 0.036
concentration: 4mM
  NP40-soluble protein abundance: 0.97 ± 0.027
concentration: 6mM
  NP40-soluble protein abundance: 0.984 ± 0.053
concentration: 8mM
  NP40-soluble protein abundance: 0.981 ± 0.048
concentration: 10mM
  NP40-soluble protein abundance: 0.981 ± 0.042

## EEF1E1 (UniProt O43324)
concentration: 1mM
  NP40-soluble protein abundance: 0.918 ± 0.046
concentration: 2mM
  NP40-soluble protein abundance: 0.952 ± 0.088
concentration: 4mM
  NP40-soluble protein abundance: 0.888 ± 0.079
concentration: 6mM
  NP40-soluble protein abundance: 0.861 ± 0.1
concentration: 8mM
  NP40-soluble protein abundance: 0.886 ± 0.14
concentration: 10mM
  NP40-soluble protein abundance: 0.857 ± 0.18

## UniProt O15014 and related entries
concentration: 1mM
  NP40-soluble protein abundance: 1.03 ± 0.059
concentration: 2mM
  NP40-soluble protein abundance: 1.1 ± 0.049
concentration: 4mM
  NP40-soluble protein abundance: 1.07 ± 0.042
concentration: 6mM
  NP40-soluble protein abundance: 1.02 ± 0.063
concentration: 8mM
  NP40-soluble protein abundance: 1 ± 0.056
concentration: 10mM
  NP40-soluble protein abundance: 1.04 ± 0.058

## UniProt O00409 and related entries
concentration: 1mM
  NP40-soluble protein abundance: 0.996 ± 0.011
concentration: 2mM
  NP40-soluble protein abundance: 1.0076 ± 0.0009
concentration: 4mM
  NP40-soluble protein abundance: 1.01 ± 0.019
concentration: 6mM
  NP40-soluble protein abundance: 0.999 ± 0.051
concentration: 8mM
  NP40-soluble protein abundance: 1.01 ± 0.016
concentration: 10mM
  NP40-soluble protein abundance: 1.02 ± 0.016

## UniProt O00628 and related entries
concentration: 1mM
  NP40-soluble protein abundance: 0.989 ± 0.019
concentration: 2mM
  NP40-soluble protein abundance: 0.949 ± 0.071
concentration: 4mM
  NP40-soluble protein abundance: 0.947 ± 0.026
concentration: 6mM
  NP40-soluble protein abundance: 0.959 ± 0.027
concentration: 8mM
  NP40-soluble protein abundance: 0.97 ± 0.035
concentration: 10mM
  NP40-soluble protein abundance: 0.94 ± 0.022

## SLC33A1 (UniProt O00400)
concentration: 1mM
  NP40-soluble protein abundance: 1 ± 0.014
concentration: 2mM
  NP40-soluble protein abundance: 0.978 ± 0.059
concentration: 4mM
  NP40-soluble protein abundance: 0.991 ± 0.045
concentration: 6mM
  NP40-soluble protein abundance: 0.964 ± 0.025
concentration: 8mM
  NP40-soluble protein abundance: 0.966 ± 0.032
concentration: 10mM
  NP40-soluble protein abundance: 0.956 ± 0.052

## UniProt O15117 and related entries
concentration: 1mM
  NP40-soluble protein abundance: 1.06 ± 0.065
concentration: 2mM
  NP40-soluble protein abundance: 1.11 ± 0.11
concentration: 4mM
  NP40-soluble protein abundance: 1.05 ± 0.029
concentration: 6mM
  NP40-soluble protein abundance: 1.12 ± 0.047
concentration: 8mM
  NP40-soluble protein abundance: 1.09 ± 0.034
concentration: 10mM
  NP40-soluble protein abundance: 1.14 ± 0.033

## ZZEF1 (UniProt O43149)
concentration: 1mM
  NP40-soluble protein abundance: 0.974 ± 0.059
concentration: 2mM
  NP40-soluble protein abundance: 0.978 ± 0.057
concentration: 4mM
  NP40-soluble protein abundance: 0.949 ± 0.072
concentration: 6mM
  NP40-soluble protein abundance: 0.932 ± 0.099
concentration: 8mM
  NP40-soluble protein abundance: 0.915 ± 0.075
concentration: 10mM
  NP40-soluble protein abundance: 0.904 ± 0.11

## RRP9 (UniProt O43818)
concentration: 1mM
  NP40-soluble protein abundance: 1.031 ± 0.01
concentration: 2mM
  NP40-soluble protein abundance: 1.04 ± 0.019
concentration: 4mM
  NP40-soluble protein abundance: 1.07 ± 0.059
concentration: 6mM
  NP40-soluble protein abundance: 1.12 ± 0.02
concentration: 8mM
  NP40-soluble protein abundance: 1.16 ± 0.035
concentration: 10mM
  NP40-soluble protein abundance: 1.26 ± 0.043

## IPO8 (UniProt O15397)
concentration: 1mM
  NP40-soluble protein abundance: 0.987 ± 0.041
concentration: 2mM
  NP40-soluble protein abundance: 0.976 ± 0.031
concentration: 4mM
  NP40-soluble protein abundance: 0.975 ± 0.011
concentration: 6mM
  NP40-soluble protein abundance: 0.94 ± 0.022
concentration: 8mM
  NP40-soluble protein abundance: 0.926 ± 0.014
concentration: 10mM
  NP40-soluble protein abundance: 0.931 ± 0.024

## SLC16A3 (UniProt O15427)
concentration: 1mM
  NP40-soluble protein abundance: 1.0247 ± 0.001
concentration: 2mM
  NP40-soluble protein abundance: 0.988 ± 0.024
concentration: 4mM
  NP40-soluble protein abundance: 0.956 ± 0.038
concentration: 6mM
  NP40-soluble protein abundance: 1 ± 0.01
concentration: 8mM
  NP40-soluble protein abundance: 0.97607 ± 0.00082
concentration: 10mM
  NP40-soluble protein abundance: 0.945 ± 0.016

## STRN (UniProt O43815)
concentration: 1mM
  NP40-soluble protein abundance: 1.01 ± 0.05
concentration: 2mM
  NP40-soluble protein abundance: 1.03 ± 0.0072
concentration: 4mM
  NP40-soluble protein abundance: 1.03 ± 0.026
concentration: 6mM
  NP40-soluble protein abundance: 1.03 ± 0.036
concentration: 8mM
  NP40-soluble protein abundance: 1.02 ± 0.034
concentration: 10mM
  NP40-soluble protein abundance: 1.04 ± 0.047

## HMGN4 (UniProt O00479)
concentration: 1mM
  NP40-soluble protein abundance: 1.024 ± 0.01
concentration: 2mM
  NP40-soluble protein abundance: 1.01 ± 0.047
concentration: 4mM
  NP40-soluble protein abundance: 1.04 ± 0.056
concentration: 6mM
  NP40-soluble protein abundance: 1.1 ± 0.07
concentration: 8mM
  NP40-soluble protein abundance: 1.08 ± 0.075
concentration: 10mM
  NP40-soluble protein abundance: 1.22 ± 0.076

From the supplement of paper PMC6411743
